Consider three molecules from patent US20200317755A1.

For assay [1], the target named is DENV1 E protein (Dengue virus serotype 1). Kind of assay: ELISA. (In general: An ELISA detects its analyte on a solid surface through an enzyme-linked reagent.)
Assay [2] concerns the target DENV3 E protein (Dengue virus serotype 3). Kind of assay: ELISA.
Assay [3] concerns the target DENV4 E protein (Dengue virus serotype 4). Kind of assay: ELISA.
Assay [4] has as its target DENV1 VLP (Dengue virus 1). The assay can be described thus: condition: dilution factor 1 (no concentration given); ELISA.
In assay [5] the target is DENV1 VLP (Dengue virus 1). The assay can be described thus: ELISA.
Assay [6] concerns the target DENV2 VLP (Dengue virus 2). Kind of assay: ELISA.
In assay [7] the target is DENV3 VLP (Dengue virus 3). The assay can be described thus: ELISA.
The target in assay [8] is DENV4 VLP (Dengue virus 4). The assay can be described thus: ELISA.
The target in assay [9] is DENV1 E protein (Dengue virus serotype 1). Kind of assay: ELISA. The source holds these as a separate data set.

Where two headings read alike, the source gives them in different places. These are yes or no findings as the source states them, for the method shown.

B1: ZKA230 (antibody, V domains shown)
VH: QVQLQESGPGLVKPSETLSLTCAVSGGSISSDYWSWIRQPPGKGLEWIGYIYYSGSTNYNPSLKSRVTISVDTSKNHFSLKLNSVTAADTAVYYCARRRKYDSLWGSFAFDIWGQGTMVTVSS
VL: QSVLTQPPSASGTPGQRVTISCSGSSSNIGGNYVYWYQQLPGTAPKLLICINDHRPSGVPDRFSGSKSGTSASLAISGLQSEDEADYYCATWDDSLGGLVFGGGTKLTVL
As to B1, the binding entry in assay [1], in [2], in [3] and in [4] was “no binding” throughout.

B2: ZKA185 (antibody, V domains shown)
VH: EVQLVQSGAEVKKPGESLRISCKGSGYSFTSYWITWVRQMPGKGLEWMAKFDPSDSQTNYSPSFQGHVTISVDKSISTAYLQWSSLKASDTAMYYCARRYCSSSSCYVDNWGQGTLVTIFS
VL: SYELTQPPSVSVSPGQTARITCSGDALPNKFAYWYRQKSGQAPVLVIYEDNKRPSGIPERFSGSSSGTMATLTISGAQVEDEADYHCYSTDSSSNPLGVFGGGTKLTVL
As for B2, the binding result in [1], in assay [2], in [3] and in assay [4] was “no binding” throughout.

B3: ZKA64 (antibody, V domains shown)
VH: QVQLVQSGAEVKKPGASVKVSCKASGYTFTGYHIDWVRQARGQGLEWMGRINPNSGGTNYAQKFQGRVTMTRDTSISTAYMQLSRLRSDDSAVYYCARMSSSIWGFDHWGQGTLVTVSS
VL: EIVMTQSPATLSVSPGERATLSCRASQSVLINLAWYQQKPGQAPRLLIYGASSRATGIPARFSGSGSGTEFTLTISSLQSEDFAVYYCQQYNDWPPITFGQGTRLEIK
For B3, the binding entry in [1], in assay [5], in assay [6], in [2], in assay [7] and in [3] was “no binding” each time. The binding entry was “no binding” in [8] and “no binding (tested: 10000 ng/ml)” in [9].
